# Some of the results follow.
# What was measured:
# Assay in all cases: glycan array binding signal (z-score within array); higher = stronger binding
# Settings in all cases: glycan notation: IUPAC condensed, linker removed
# Kdn(a2-3)Gal(b1-3)GlcNAc = system: Kdn(a2-3)Gal(b1-3)GlcNAc
# In short: (§1)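 From the Consortium for Functional Glycomics database, 3228 arrays were curated, keeping only those whose protein sequence was available. Binding is given as a within-array Z-score averaged across arrays sharing a protein sequence and across linkers. Negative Z-scores can be read as non-binding.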
# Kdn(a2-3)Gal(b1-4)GlcNAc = system: Kdn(a2-3)Gal(b1-4)GlcNAc
# In short: as §1
# Kdn(a2-3)Gal(b1-4)Glc = system: Kdn(a2-3)Gal(b1-4)Glc
# In short: as §1
# [1] = system: Kdn(a2-3)Gal(b1-4)[Fuc(a1-3)]GlcNAc
# In short: as §1
# Kdn(a2-6)Gal(b1-4)GlcNAc = system: Kdn(a2-6)Gal(b1-4)GlcNAc
# In short: as §1
# [2] = system: Man(a1-2)Man(a1-2)Man(a1-3)Man
# In short: as §1
# [3] = system: Man(a1-2)Man(a1-2)Man(a1-6)[Man(a1-3)]Man
# In short: as §1
# Man(a1-2)Man(a1-3)Man = system: Man(a1-2)Man(a1-3)Man
# In short: as §1
# [4] = system: Man(a1-2)Man(a1-3)[Man(a1-2)Man(a1-6)]Man(a1-6)[Man(a1-2)Man(a1-2)Man(a1-3)]Man(b1-4)GlcNAc(b1-4)GlcNAc
# In short: as §1
# [5] = system: Man(a1-2)Man(a1-3)[Man(a1-2)Man(a1-6)]Man(a1-6)[Man(a1-2)Man(a1-2)Man(a1-3)]Man
# In short: as §1
# [6] = system: Man(a1-2)Man(a1-3)[Man(a1-2)Man(a1-6)]Man
# In short: as §1
# [7] = system: Man(a1-2)Man(a1-3)[Man(a1-6)]Man(a1-6)[Man(a1-2)Man(a1-3)]Man(b1-4)GlcNAc(b1-4)GlcNAc
# In short: as §1
# [8] = system: Man(a1-2)Man(a1-6)[Man(a1-3)]Man(a1-6)[Man(a1-2)Man(a1-2)Man(a1-3)]Man(b1-4)GlcNAc(b1-4)GlcNAc
# In short: as §1
# [9] = system: Man(a1-2)Man(a1-6)[Man(a1-3)]Man(a1-6)[Man(a1-2)Man(a1-2)Man(a1-3)]Man
# In short: as §1
# [10] = system: Man(a1-3)[Man(a1-6)]Man(a1-6)[Man(a1-2)Man(a1-3)]Man(b1-4)GlcNAc(b1-4)GlcNAc
# In short: as §1
# [11] = system: Man(a1-3)[Man(a1-6)]Man(a1-6)[Man(a1-3)]Man(b1-4)GlcNAc(b1-4)GlcNAc
# In short: as §1
# [12] = system: Man(a1-3)[Man(a1-6)]Man(a1-6)[Man(a1-3)]Man
# In short: as §1
# [13] = system: Man(a1-3)[Man(a1-6)]Man(b1-4)GlcNAc(b1-4)GlcNAc
# In short: as §1
# [14] = system: Man(a1-3)[Man(a1-6)]Man(b1-4)GlcNAc(b1-4)[Fuc(a1-6)]GlcNAc
# In short: as §1
# Man(a1-3)[Man(a1-6)]Man = system: Man(a1-3)[Man(a1-6)]Man
# In short: as §1
# Man(a1-6)Man = system: Man(a1-6)Man
# In short: as §1
# Man(b1-4)GlcNAc = system: Man(b1-4)GlcNAc
# In short: as §1
# MurNAc(b1-4)GlcNAc = system: MurNAc(b1-4)GlcNAc
# In short: as §1
# [15] = system: Neu5Ac(a2-3)Gal(b1-3)GalNAc(b1-3)Gal(a1-4)Gal(b1-4)Glc
# In short: as §1
# [16] = system: Neu5Ac(a2-3)Gal(b1-3)GalNAc(b1-4)Gal(b1-4)Glc
# In short: as §1
# [17] = system: Neu5Ac(a2-3)Gal(b1-3)GalNAc(b1-4)[Neu5Ac(a2-3)]Gal(b1-4)Glc
# In short: as §1
# [18] = system: Neu5Ac(a2-3)Gal(b1-3)GalNAc(b1-4)[Neu5Ac(a2-8)Neu5Ac(a2-3)]Gal(b1-4)Glc
# In short: as §1
# [19] = system: Neu5Ac(a2-3)Gal(b1-3)GalNAc6S
# In short: as §1
# [20] = system: Neu5Ac(a2-3)Gal(b1-3)GalNAc
# In short: as §1
# [21] = system: Neu5Ac(a2-3)Gal(b1-3)GlcNAc(b1-2)Man(a1-3)[GlcNAc(b1-4)][Neu5Ac(a2-3)Gal(b1-3)GlcNAc(b1-2)Man(a1-6)]Man(b1-4)GlcNAc(b1-4)GlcNAc
# In short: as §1
# [22] = system: Neu5Ac(a2-3)Gal(b1-3)GlcNAc(b1-2)Man(a1-3)[Neu5Ac(a2-3)Gal(b1-3)GlcNAc(b1-2)Man(a1-6)]Man(b1-4)GlcNAc(b1-4)GlcNAc
# In short: as §1
# [23] = system: Neu5Ac(a2-3)Gal(b1-3)GlcNAc(b1-2)Man
# In short: as §1
substance,measurement,setting,value
MpAFP RI GFP (Marinomonas primoryensis),glycan array binding signal (z-score),Kdn(a2-3)Gal(b1-3)GlcNAc,-0.658
same,glycan array binding signal (z-score),Kdn(a2-3)Gal(b1-4)GlcNAc,-0.126
same,glycan array binding signal (z-score),Kdn(a2-3)Gal(b1-4)Glc,-0.272
same,glycan array binding signal (z-score),[1],-0.342
same,glycan array binding signal (z-score),Kdn(a2-6)Gal(b1-4)GlcNAc,0.191
same,glycan array binding signal (z-score),[2],-0.515
same,glycan array binding signal (z-score),[3],-0.476
same,glycan array binding signal (z-score),Man(a1-2)Man(a1-3)Man,-0.301
same,glycan array binding signal (z-score),[4],-0.271
same,glycan array binding signal (z-score),[5],-0.475
same,glycan array binding signal (z-score),[6],0.777
same,glycan array binding signal (z-score),[7],-1.04
same,glycan array binding signal (z-score),[8],-0.007
same,glycan array binding signal (z-score),[9],-0.648
same,glycan array binding signal (z-score),[10],-0.2
same,glycan array binding signal (z-score),[11],-0.154
same,glycan array binding signal (z-score),[12],0.953
same,glycan array binding signal (z-score),[13],-0.314
same,glycan array binding signal (z-score),[14],-0.117
same,glycan array binding signal (z-score),Man(a1-3)[Man(a1-6)]Man,2.02
same,glycan array binding signal (z-score),Man(a1-6)Man,0.447
same,glycan array binding signal (z-score),Man(b1-4)GlcNAc,1.81
same,glycan array binding signal (z-score),MurNAc(b1-4)GlcNAc,-0.327
same,glycan array binding signal (z-score),[15],-0.578
same,glycan array binding signal (z-score),[16],-0.46
same,glycan array binding signal (z-score),[17],-0.665
same,glycan array binding signal (z-score),[18],-0.565
same,glycan array binding signal (z-score),[19],-0.209
same,glycan array binding signal (z-score),[20],0.25
same,glycan array binding signal (z-score),[21],-0.323
same,glycan array binding signal (z-score),[22],1.68
same,glycan array binding signal (z-score),[23],-0.347

# Quoted from the results shown (two entries):
substance,measurement,setting,value
MpAFP RI GFP (Marinomonas primoryensis),glycan array binding signal (z-score),MurNAc(b1-4)GlcNAc,-0.327
same,glycan array binding signal (z-score),[15],-0.578
